Laboratory results published in paper doi:10.1101/2020.06.06.138156 (bioRxiv, 2020).

How the values were obtained:
Test in all cases: affinity purification with mass spectrometry
[1] = biological target: T1, Halo-tagged SETD2 fragment 2164-2213 (human) (UniProt Q9BYW2)
T1 sequence: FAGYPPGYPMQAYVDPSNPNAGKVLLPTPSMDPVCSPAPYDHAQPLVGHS

[2] = biological target: T2, Halo-SETD2C (1404-2564) (human) (UniProt Q9BYW2)
T2 sequence: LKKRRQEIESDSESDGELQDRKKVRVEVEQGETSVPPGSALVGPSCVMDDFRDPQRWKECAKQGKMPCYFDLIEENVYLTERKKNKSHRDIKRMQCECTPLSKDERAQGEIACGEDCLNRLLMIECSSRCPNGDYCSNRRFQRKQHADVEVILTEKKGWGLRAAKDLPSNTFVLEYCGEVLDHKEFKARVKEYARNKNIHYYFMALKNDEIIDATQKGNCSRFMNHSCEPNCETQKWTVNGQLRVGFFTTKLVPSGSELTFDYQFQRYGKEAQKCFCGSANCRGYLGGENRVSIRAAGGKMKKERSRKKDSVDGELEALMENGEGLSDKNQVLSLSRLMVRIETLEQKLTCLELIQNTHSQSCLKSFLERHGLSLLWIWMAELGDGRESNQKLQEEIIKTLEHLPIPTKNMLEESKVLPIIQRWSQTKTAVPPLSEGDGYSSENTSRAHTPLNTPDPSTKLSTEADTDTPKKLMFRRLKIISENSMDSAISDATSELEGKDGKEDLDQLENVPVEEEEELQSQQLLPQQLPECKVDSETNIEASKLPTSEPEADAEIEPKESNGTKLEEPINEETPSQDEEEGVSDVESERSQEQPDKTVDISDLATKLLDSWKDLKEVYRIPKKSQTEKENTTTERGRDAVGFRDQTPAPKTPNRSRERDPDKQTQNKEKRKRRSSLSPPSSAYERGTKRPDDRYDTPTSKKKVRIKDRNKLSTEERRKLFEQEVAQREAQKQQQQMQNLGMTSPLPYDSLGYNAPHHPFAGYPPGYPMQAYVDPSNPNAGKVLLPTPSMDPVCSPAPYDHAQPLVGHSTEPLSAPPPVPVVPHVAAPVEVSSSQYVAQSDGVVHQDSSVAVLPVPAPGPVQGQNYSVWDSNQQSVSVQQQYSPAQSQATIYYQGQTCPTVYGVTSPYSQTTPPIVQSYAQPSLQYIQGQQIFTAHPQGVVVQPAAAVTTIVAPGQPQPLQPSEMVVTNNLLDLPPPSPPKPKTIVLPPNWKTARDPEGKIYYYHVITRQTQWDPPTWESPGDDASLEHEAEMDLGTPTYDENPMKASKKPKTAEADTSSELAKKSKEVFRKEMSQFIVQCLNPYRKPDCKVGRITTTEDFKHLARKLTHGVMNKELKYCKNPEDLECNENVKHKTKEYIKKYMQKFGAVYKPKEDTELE

[3] = biological target: T3, Halo-SETD2CΔ2114-2263 (human) (UniProt Q9BYW2)
T3 sequence: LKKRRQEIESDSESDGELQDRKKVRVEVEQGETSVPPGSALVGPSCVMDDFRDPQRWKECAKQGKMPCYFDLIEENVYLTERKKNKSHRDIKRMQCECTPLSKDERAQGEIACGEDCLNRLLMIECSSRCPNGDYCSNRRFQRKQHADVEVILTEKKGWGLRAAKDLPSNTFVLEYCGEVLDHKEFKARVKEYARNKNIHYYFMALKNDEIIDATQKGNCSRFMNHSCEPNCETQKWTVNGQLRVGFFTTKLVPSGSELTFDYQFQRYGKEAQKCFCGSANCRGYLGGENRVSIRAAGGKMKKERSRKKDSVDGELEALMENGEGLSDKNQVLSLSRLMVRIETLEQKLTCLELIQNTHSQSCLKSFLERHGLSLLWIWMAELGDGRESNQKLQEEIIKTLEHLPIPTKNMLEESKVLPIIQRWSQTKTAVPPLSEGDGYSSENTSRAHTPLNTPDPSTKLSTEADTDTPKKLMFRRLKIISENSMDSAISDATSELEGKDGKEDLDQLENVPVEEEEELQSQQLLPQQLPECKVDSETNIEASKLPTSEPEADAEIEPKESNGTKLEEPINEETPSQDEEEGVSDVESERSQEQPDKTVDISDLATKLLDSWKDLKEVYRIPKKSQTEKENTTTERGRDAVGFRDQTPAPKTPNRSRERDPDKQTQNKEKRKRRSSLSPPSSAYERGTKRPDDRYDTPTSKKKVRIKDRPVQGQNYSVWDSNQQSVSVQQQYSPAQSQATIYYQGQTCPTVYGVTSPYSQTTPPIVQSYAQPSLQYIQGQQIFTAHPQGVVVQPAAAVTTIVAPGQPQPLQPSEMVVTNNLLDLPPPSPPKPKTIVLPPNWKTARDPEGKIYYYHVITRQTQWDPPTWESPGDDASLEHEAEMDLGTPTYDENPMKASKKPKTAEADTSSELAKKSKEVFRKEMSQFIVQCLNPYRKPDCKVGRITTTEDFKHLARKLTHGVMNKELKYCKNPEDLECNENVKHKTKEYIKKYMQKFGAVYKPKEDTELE

[4] = biological target: T4, Halo-tagged SETD2 SHI domain (2114-2263) (human) (UniProt Q9BYW2)
T4 sequence: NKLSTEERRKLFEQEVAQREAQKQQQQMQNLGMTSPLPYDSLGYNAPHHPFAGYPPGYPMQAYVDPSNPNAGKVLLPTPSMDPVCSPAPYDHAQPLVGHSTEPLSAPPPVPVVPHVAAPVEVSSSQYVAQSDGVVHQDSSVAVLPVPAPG

[5] = biological target: T5, Halo-tagged SETD2 fragment 1964-2263 (human) (UniProt Q9BYW2)
T5 sequence: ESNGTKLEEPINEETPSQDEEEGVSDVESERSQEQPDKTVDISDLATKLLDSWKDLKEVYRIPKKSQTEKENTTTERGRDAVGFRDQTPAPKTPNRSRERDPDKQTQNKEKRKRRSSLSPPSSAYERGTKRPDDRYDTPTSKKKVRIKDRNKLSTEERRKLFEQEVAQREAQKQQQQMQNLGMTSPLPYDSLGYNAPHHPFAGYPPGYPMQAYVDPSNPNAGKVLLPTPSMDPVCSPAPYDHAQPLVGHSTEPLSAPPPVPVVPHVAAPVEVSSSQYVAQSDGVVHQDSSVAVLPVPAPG

[6] = biological target: T6, Halo-tagged SETD2 fragment 1964-2113 (human) (UniProt Q9BYW2)
T6 sequence: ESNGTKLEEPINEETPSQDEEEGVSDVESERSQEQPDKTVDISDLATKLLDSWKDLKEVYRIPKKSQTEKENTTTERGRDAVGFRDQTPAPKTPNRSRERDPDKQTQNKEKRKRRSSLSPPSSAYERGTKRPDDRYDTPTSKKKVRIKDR

Halo-ySet2 (yeast) = biological target: T7, Halo-ySet2 (yeast) (UniProt P46995)
T7 sequence: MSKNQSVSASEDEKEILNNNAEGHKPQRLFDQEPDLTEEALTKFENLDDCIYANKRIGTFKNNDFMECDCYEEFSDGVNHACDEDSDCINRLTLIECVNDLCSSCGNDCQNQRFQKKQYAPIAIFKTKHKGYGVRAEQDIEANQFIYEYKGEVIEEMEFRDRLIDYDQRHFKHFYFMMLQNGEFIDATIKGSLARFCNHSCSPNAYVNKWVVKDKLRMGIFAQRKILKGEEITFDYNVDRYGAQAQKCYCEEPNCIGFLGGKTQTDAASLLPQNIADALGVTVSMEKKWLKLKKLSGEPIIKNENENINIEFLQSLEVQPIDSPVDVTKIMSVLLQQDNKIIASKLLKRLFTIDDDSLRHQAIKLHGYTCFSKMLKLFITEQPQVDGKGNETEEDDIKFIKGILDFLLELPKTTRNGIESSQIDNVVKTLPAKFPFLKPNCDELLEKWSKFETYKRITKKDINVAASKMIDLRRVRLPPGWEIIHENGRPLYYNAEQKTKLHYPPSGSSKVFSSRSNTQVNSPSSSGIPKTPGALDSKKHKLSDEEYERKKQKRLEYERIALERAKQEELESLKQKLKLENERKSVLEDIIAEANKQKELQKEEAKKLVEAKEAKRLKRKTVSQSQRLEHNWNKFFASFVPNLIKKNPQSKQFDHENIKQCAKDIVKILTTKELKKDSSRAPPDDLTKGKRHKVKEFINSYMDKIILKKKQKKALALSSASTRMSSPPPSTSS

binding [1]: binds
binding [2]: binds
binding [3]: no binding
binding [4]: binds
binding [5]: binds
binding [6]: no binding
binding (Halo-ySet2 (yeast)): no binding
B1: hnRNP L (endogenous) (protein, UniProt P14866 1-589)
chain: MSRRLLPRAEKRRRRLEQRQQPDEQRRRSGAMVKMAAAGGGGGGGRYYGGGSEGGRAPKRLKTDNAGDQHGGGGGGGGGAGAAGGGGGGENYDDPHKTPASPVVHIRGLIDGVVEADLVEALQEFGPISYVVVMPKKRQALVEFEDVLGACNAVNYAADNQIYIAGHPAFVNYSTSQKISRPGDSDDSRSVNSVLLFTILNPIYSITTDVLYTICNPCGPVQRIVIFRKNGVQAMVEFDSVQSAQRAKASLNGADIYSGCCTLKIEYAKPTRLNVFKNDQDTWDYTNPNLSGQGDPGSNPNKRQRQPPLLGDHPAEYGGPHGGYHSHYHDEGYGPPPPHYEGRRMGPPVGGHRRGPSRYGPQYGHPPPPPPPPEYGPHADSPVLMVYGLDQSKMNCDRVFNVFCLYGNVEKVKFMKSKPGAAMVEMADGYAVDRAITHLNNNFMFGQKLNVCVSKQPAIMPGQSYGLEDGSCSYKDFSESRNNRFSTPEQAAKNRIQHPSNVLHFFNAPLEVTEENFFEICDELGVKRPSSVKVFSGKSERSSSGLLEWESKSDALETLGFLNHYQMKNPNGPYPYTLKLCFSTAQHAS

These are yes or no findings as the source states them, for the method shown. In cells and extracts the contact can be indirect. Here binding means that the protein was enriched with, or labelled near, the bait; the list need not be complete. For some of these results: No binding means not detected with the bait. For some of these results: Sequences can lack the tags named with a protein.
